# Data reported in PubChem BioAssay AID328 (DTP/NCI, 2004).
# The list is a part of this screen's results and no random one: it is rich in T/C values a quarter to a half above the control, in often repeated tests (any T/C) and in doses without a T/C. Further doses and runs are listed elsewhere. T/C: endpoint of the treated group in % of that of the vehicle group. Some doses have a count of surviving animals in place of a T/C: the source holds a T/C of zero for them, seemingly a mark for toxic or unscored doses. Some doses without a T/C left all or most animals alive at the check, yet need not have been tolerated: survival well below the control is almost never listed, so the zero probably covers shortened survival too. Survivors were counted at the toxicity check, usually on the fifth day, unless a day is given; later deaths do not show. Schedules are NCI's codes, read here as Q, the interval in days (D) or hours (H), X, the number of doses. Some entries hold several experiments; their values stand side by side, smallest first. Where survival is the endpoint, this PubChem deposit counts one and a half times the control or more as active, and values a quarter to a half above the control carry no call in these data; other NCI protocols may use other cut-offs. Some T/C values carry the count of animals alive at the toxicity check (mostly the fifth day); where none is given, no animal had died by that day.
# Test system: BDF1 mice, P388 leukemia ip, median survival T/C
# Experiment: NCI In Vivo Anticancer Drug Screen. Data for tumor model P388 Leukemia (intraperitoneal) in B6D2F1 (BDF1) mice
# Conditions: T/C endpoint: median survival time, higher T/C = longer survival
# Summary of the method: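 T/C = treated-group survival ÷ vehicle-control survival; tumour transplanted into mice before dosing.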
# [1] = dose: 100.0 mg/kg/injection, schedule: Q01DX009 (ip), vehicle: other
# [2] = dose: 200.0 mg/kg/injection, schedule: Q01DX009 (ip), vehicle: other
# [3] = dose: 25.0 mg/kg/injection, schedule: Q01DX009 (ip), vehicle: saline with Tween-80
# [4] = dose: 6.0 mg/kg/injection, schedule: Q01DX010 (ip), vehicle: saline
# [5] = dose: 100.0 mg/kg/injection, schedule: Q04DX003 (ip), vehicle: saline with Tween-80
compound,measurement,setting,value
COC(=O)C(Cc1ccccc1)NS(=O)(=O)c1ccc(C)cc1 (stereo not drawn),survivor count,"dose: 100.0 mg/kg/injection, schedule: Q01DX005 (ip), vehicle: saline with Tween-80",5 of 5
CN(N=O)C(=O)N[C@@H](C=O)[C@@H](O)[C@H](O)[C@H](O)CO,T/C,"dose: 12.5 mg/kg/injection, schedule: Q01DX009 (ip), vehicle: other",128 % of control
same,T/C,"dose: 17.0 mg/kg/injection, schedule: Q01DX009 (ip), vehicle: water",145 % of control
same,T/C,"dose: 20.0 mg/kg/injection, schedule: Q01DX010 (ip), vehicle: other",131 % of control
same,T/C,"dose: 25.0 mg/kg/injection, schedule: Q01DX009 (ip), vehicle: other",132 % of control
same,T/C,"dose: 26.0 mg/kg/injection, schedule: Q01DX009 (ip), vehicle: water",142 and 143 % of control
same,T/C,"dose: 39.0 mg/kg/injection, schedule: Q01DX009 (ip), vehicle: water",139 % of control
same,T/C,[1],125 % of control
same,survivor count,"dose: 130.0 mg/kg/injection, schedule: Q01DX009 (ip), vehicle: water",7 of 8
same,survivor count,"dose: 160.0 mg/kg/injection, schedule: Q01DX010 (ip), vehicle: other",6 of 6
same,survivor count,[2],9 of 10
same,survivor count,"dose: 200.0 mg/kg/injection, schedule: Q01DX009 (ip), vehicle: water",3 of 8 and 7 of 8
Cn1cnc([N+](=O)[O-])c1Sc1nc(N)nc2nc[nH]c12,T/C,"dose: 16.0 mg/kg/injection, schedule: Q01DX009 (ip), vehicle: saline with Tween-80",130 % of control
same,survivor count,[3],6 of 6
same,survivor count,"dose: 37.5 mg/kg/injection, schedule: Q01DX009 (ip), vehicle: saline with Tween-80",6 of 6
COc1cccc2c(Cl)c(CCl)c(C)nc12,survivor count,"dose: 100.0 mg/kg/injection, schedule: Q01DX009 (ip), vehicle: saline with Tween-80",4 of 6
same,survivor count,"dose: 200.0 mg/kg/injection, schedule: Q01DX009 (ip), vehicle: saline with Tween-80",0 of 6
same,survivor count,"dose: 400.0 mg/kg/injection, schedule: Q01DX009 (ip), vehicle: saline with Tween-80",0 of 6
O=c1[nH]cc(N(CCCl)CCCl)c(=O)[nH]1,survivor count,"dose: 3.0 mg/kg/injection, schedule: Q01DX010 (ip), vehicle: saline",6 of 6
same,survivor count,[4],5 of 6
FC(F)(F)C(F)(F)c1nc2nc(Cl)c(Cl)nc2[nH]1,survivor count,[1],4 of 6
N#Cc1cn(C2OC(CO)C(O)C2O)c2ncnc(N)c12 (stereo not drawn),survivor count,"dose: 0.75 mg/kg/injection, schedule: Q01DX009 (ip), vehicle: other",6 of 6
same,survivor count,"dose: 1.5 mg/kg/injection, schedule: Q01DX009 (ip), vehicle: other",6 of 6
same,survivor count,"dose: 3.0 mg/kg/injection, schedule: Q01DX009 (ip), vehicle: other",4 of 6
same,survivor count,[5],0 of 6
same,survivor count,"dose: 200.0 mg/kg/injection, schedule: Q04DX003 (ip), vehicle: saline with Tween-80",0 of 6
same,survivor count,"dose: 400.0 mg/kg/injection, schedule: Q04DX003 (ip), vehicle: saline with Tween-80",0 of 6
CC(=O)CC(C)=O.CC(=O)CC(C)=O.Cn1ccnc1.Cn1ccnc1.[Ni],survivor count,"dose: 100.0 mg/kg/injection, schedule: Q04DX002 (ip), vehicle: saline with Tween-80",1 of 6
same,survivor count,"dose: 200.0 mg/kg/injection, schedule: Q04DX002 (ip), vehicle: saline with Tween-80",0 of 6
same,survivor count,"dose: 400.0 mg/kg/injection, schedule: Q04DX002 (ip), vehicle: saline with Tween-80",0 of 6
O=C(CCN1CC1)OCCOC(=O)CCN1CC1,T/C,"dose: 3.0 mg/kg/injection, schedule: Q01DX009 (ip), vehicle: saline with Tween-80",141 % of control
same,T/C,"dose: 6.0 mg/kg/injection, schedule: Q01DX009 (ip), vehicle: saline with Tween-80",129 % of control
same,survivor count,"dose: 12.5 mg/kg/injection, schedule: Q01DX009 (ip), vehicle: saline with Tween-80",6 of 6
same,survivor count,[3],6 of 6
same,survivor count,"dose: 50.0 mg/kg/injection, schedule: Q01DX009 (ip), vehicle: saline with Tween-80",5 of 6
same,survivor count,"dose: 110.0 mg/kg/injection, schedule: Q04DX003 (ip), vehicle: saline with Tween-80",3 of 6
ON=C1CSSC1,survivor count,"dose: 20.0 mg/kg/injection, schedule: Q04DX003 (ip), vehicle: saline with Tween-80",0 of 6
same,survivor count,[3],0 of 6
same,survivor count,"dose: 25.0 mg/kg/injection, schedule: Q04DX003 (ip), vehicle: saline with Tween-80",1 of 6
O=C1c2ccccc2C(=O)c2c(NCCN3CCCCC3)ccc(NCCN3CCCCC3)c21,T/C,[1],135 % of control
same,survivor count,[2],1 of 6
same,survivor count,"dose: 400.0 mg/kg/injection, schedule: Q01DX009 (ip), vehicle: other",0 of 6
[N-]=[N+]=CC(=O)NCC(=O)NN,T/C,"dose: 100.0 mg/kg/injection, schedule: Q01DX010 (ip), vehicle: saline",127 % of control
same,T/C,"dose: 100.0 mg/kg/injection, schedule: Q01DX010 (ip), vehicle: water",130 % of control
same,T/C,"dose: 200.0 mg/kg/injection, schedule: Q01DX010 (ip), vehicle: saline",140 % of control
same,survivor count,"dose: 800.0 mg/kg/injection, schedule: Q01DX010 (ip), vehicle: saline",6 of 6
CCCCCCCCCCCCCCCCOc1ccc(Cl)cc1,survivor count,"dose: 100.0 mg/kg/injection, schedule: Q01DX001 (ip), vehicle: saline sonified",6 of 6
O=C1NN(c2ccccc2)C(=O)/C1=C\c1ccccc1O,T/C,"dose: 87.5 mg/kg/injection, schedule: Q01DX009 (ip), vehicle: saline with Tween-80",132 % of control
same,T/C,"dose: 175.0 mg/kg/injection, schedule: Q01DX009 (ip), vehicle: saline with Tween-80",129 % of control
CCCCNP(=O)(N1CC1CC)N1CC1CC (stereo not drawn),T/C,"dose: 200.0 mg/kg/injection, schedule: Q04DX003 (ip), vehicle: saline",131 % of control
same,survivor count,"dose: 400.0 mg/kg/injection, schedule: Q04DX003 (ip), vehicle: saline",3 of 6
Cc1ccc2c3csc4ccccc4c-3nc2c1,T/C,"dose: 8.2 mg/kg/injection, schedule: Q01DX009 (ip), vehicle: saline",136 % of control
S=C(N/N=C/c1ccccn1)Nc1ccccn1,T/C,"dose: 100.0 mg/kg/injection, schedule: Q04DX003 (ip), vehicle: Klucel (hydroxypropylcellulose) (HPC)",135 % of control
same,T/C,"dose: 200.0 mg/kg/injection, schedule: Q04DX003 (ip), vehicle: Klucel (hydroxypropylcellulose) (HPC)",135 % of control
same,survivor count,"dose: 400.0 mg/kg/injection, schedule: Q04DX003 (ip), vehicle: Klucel (hydroxypropylcellulose) (HPC)",4 of 6
C=C[P+](c1ccccc1)(c1ccccc1)c1ccccc1,survivor count,"dose: 0.75 mg/kg/injection, schedule: Q01DX010 (ip), vehicle: saline",6 of 6
same,T/C,"dose: 1.6 mg/kg/injection, schedule: Q01DX009 (ip), vehicle: saline",125 % of control
same,T/C,"dose: 2.5 mg/kg/injection, schedule: Q01DX009 (ip), vehicle: saline",132 % of control
same,T/C,"dose: 5.0 mg/kg/injection, schedule: Q04DX003 (ip), vehicle: saline",125 and 129 % of control
same,survivor count,[4],6 of 6
same,T/C,"dose: 7.5 mg/kg/injection, schedule: Q04DX003 (ip), vehicle: saline",125 % of control [5 of 6 alive]
same,survivor count,"dose: 10.0 mg/kg/injection, schedule: Q01DX009 (ip), vehicle: saline",6 of 6
same,survivor count,"dose: 10.0 mg/kg/injection, schedule: Q04DX003 (ip), vehicle: saline",6 of 6
same,survivor count,"dose: 20.0 mg/kg/injection, schedule: Q01DX009 (ip), vehicle: saline",6 of 6
same,survivor count,"dose: 20.0 mg/kg/injection, schedule: Q04DX003 (ip), vehicle: saline",6 of 6
same,survivor count,"dose: 40.0 mg/kg/injection, schedule: Q04DX003 (ip), vehicle: saline",5 of 6
CCOC(=O)CCCN(c1[nH]c(C)c(C)c1C#N)S(=O)(=O)c1ccc(C)cc1,survivor count,"dose: 50.0 mg/kg/injection, schedule: Q04DX003 (ip), vehicle: saline with Tween-80",6 of 6
same,survivor count,[5],6 of 6
